The source of these data is article doi:10.1101/2024.04.02.587738.

These are yes or no findings as the source states them, for the method shown. Binding seen in cells or lysates may run through a third protein. Here binding means that the protein was enriched with, or labelled near, the bait; the list need not be complete. Tags and fused reporters may be left off the sequences shown.

The assay addresses T1, HA-tagged COA8 (Cytochrome c Oxidase Assembly factor 8) (human) (UniProt Q96IL0).
T1 sequence: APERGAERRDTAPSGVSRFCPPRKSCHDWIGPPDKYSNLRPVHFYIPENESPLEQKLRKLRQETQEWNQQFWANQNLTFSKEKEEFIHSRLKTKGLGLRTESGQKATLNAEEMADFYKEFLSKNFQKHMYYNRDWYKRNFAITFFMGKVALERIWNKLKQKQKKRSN
The assay can be described thus: affinity purification with mass spectrometry.

Regarding COX10, heme O synthase (enzyme), the binding result is recorded as “binds”.
